Experimental data: PubChem BioAssay AID1259254 (NCATS, 2017)

- Assay: 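Gene knock-downs that lead to re-replication, shown by excess G2 DNA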 (primary screen)
- System: human HCT116 colorectal cancer cells
- Reagent: single siRNA against human genes
- Duration: 3 days
- Measurement: 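Nuclei stained with Hoechst and imaged; cell-cycle phase assigned by DNA content; G2 share scaled per plate, non-targeting siRNA 0%, GMNN siRNA 100%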
- Scale: G2 robust z-score and G2 cells, % of GMNN control: higher = more G2 cells, more excess DNA replication
- Rule for the call: 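Active siRNAs have a G2 robust z of 5 or more median absolute deviations over the median, which in these data means about 38% or higher of GMNN control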
This is an unselected part of about 59,000 reagents. About 1,550 of them (2.6%) were called active. 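G2 share is only a proxy for re-replication; each gene was hit by three separate siRNAs, and active genes were retested.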 The numbers tell different reagents against one gene apart. Further read-outs or replicates are left out here. No sequences are given here. Not stated in the record: the amount of reagent.

The first 3 entries, ahead of the listing:
HTR5A (GeneID 3361) #1
- G2 robust z-score: 3.5
- G2 cells, % of GMNN control: 27.6
- call: inactive

HTR5A (GeneID 3361) #2
- G2 robust z-score: -1.61
- G2 cells, % of GMNN control: -8.38
- call: inactive

HTR5A (GeneID 3361) #3
- G2 robust z-score: -0.242
- G2 cells, % of GMNN control: 1.26
- call: inactive

The listing, from the first entry:
HTR5A (GeneID 3361) #1
- G2 robust z-score: 3.5
- G2 cells, % of GMNN control: 27.6
- call: inactive

HTR5A (GeneID 3361) #2
- G2 robust z-score: -1.61
- G2 cells, % of GMNN control: -8.38
- call: inactive

HTR5A (GeneID 3361) #3
- G2 robust z-score: -0.242
- G2 cells, % of GMNN control: 1.26
- call: inactive

PIGV (GeneID 55650) #1
- G2 robust z-score: -0.209
- G2 cells, % of GMNN control: 1.49
- call: inactive

PIGV (GeneID 55650) #2
- G2 robust z-score: 0.844
- G2 cells, % of GMNN control: 8.91
- call: inactive

PIGV (GeneID 55650) #3
- G2 robust z-score: -0.791
- G2 cells, % of GMNN control: -2.59
- call: inactive

HOXD12 (GeneID 3238) #1
- G2 robust z-score: 0.47
- G2 cells, % of GMNN control: 6.28
- call: inactive

HOXD12 (GeneID 3238) #2
- G2 robust z-score: -1.46
- G2 cells, % of GMNN control: -7.32
- call: inactive

HOXD12 (GeneID 3238) #3
- G2 robust z-score: 1.14
- G2 cells, % of GMNN control: 11
- call: inactive

SSU72P1 (GeneID 286528) #1
- G2 robust z-score: 0.944
- G2 cells, % of GMNN control: 9.61
- call: inactive

SSU72P1 (GeneID 286528) #2
- G2 robust z-score: 0.0383
- G2 cells, % of GMNN control: 3.24
- call: inactive

SSU72P1 (GeneID 286528) #3
- G2 robust z-score: -0.668
- G2 cells, % of GMNN control: -1.73
- call: inactive

C14orf39 (GeneID 317761) #1
- G2 robust z-score: 1.09
- G2 cells, % of GMNN control: 10.7
- call: inactive

C14orf39 (GeneID 317761) #2
- G2 robust z-score: -0.191
- G2 cells, % of GMNN control: 1.62
- call: inactive

C14orf39 (GeneID 317761) #3
- G2 robust z-score: 0.135
- G2 cells, % of GMNN control: 3.91
- call: inactive

LINC01446 (GeneID 401337) #1
- G2 robust z-score: -0.468
- G2 cells, % of GMNN control: -0.328
- call: inactive

LINC01446 (GeneID 401337) #2
- G2 robust z-score: -0.604
- G2 cells, % of GMNN control: -1.28
- call: inactive

LINC01446 (GeneID 401337) #3
- G2 robust z-score: -1.02
- G2 cells, % of GMNN control: -4.21
- call: inactive

CBX8 (GeneID 57332) #1
- G2 robust z-score: 0.0564
- G2 cells, % of GMNN control: 3.36
- call: inactive

CBX8 (GeneID 57332) #2
- G2 robust z-score: -0.855
- G2 cells, % of GMNN control: -3.05
- call: inactive

CBX8 (GeneID 57332) #3
- G2 robust z-score: 0.82
- G2 cells, % of GMNN control: 8.74
- call: inactive

ADAM18 (GeneID 8749) #1
- G2 robust z-score: 3.86
- G2 cells, % of GMNN control: 30.1
- call: inactive

ADAM18 (GeneID 8749) #2
- G2 robust z-score: 1.16
- G2 cells, % of GMNN control: 11.1
- call: inactive

ADAM18 (GeneID 8749) #3
- G2 robust z-score: -0.924
- G2 cells, % of GMNN control: -3.54
- call: inactive

CGN (GeneID 57530) #1
- G2 robust z-score: -0.307
- G2 cells, % of GMNN control: 0.807
- call: inactive

CGN (GeneID 57530) #2
- G2 robust z-score: -0.447
- G2 cells, % of GMNN control: -0.178
- call: inactive

CGN (GeneID 57530) #3
- G2 robust z-score: -0.549
- G2 cells, % of GMNN control: -0.898
- call: inactive

XK (GeneID 7504) #1
- G2 robust z-score: 1.68
- G2 cells, % of GMNN control: 14.8
- call: inactive

XK (GeneID 7504) #2
- G2 robust z-score: 1.07
- G2 cells, % of GMNN control: 10.5
- call: inactive

XK (GeneID 7504) #3
- G2 robust z-score: -0.346
- G2 cells, % of GMNN control: 0.532
- call: inactive
